Publication PMC9324337
These are yes or no findings as the source states them, for the method shown. Binding seen in cells or lysates may run through a third protein. Some results given as binding are weak or reduced against the parent protein; the word gives no strength.

Protein sequences, listed by entry. Tags and fused reporters are not part of them.
UniProt Q04206: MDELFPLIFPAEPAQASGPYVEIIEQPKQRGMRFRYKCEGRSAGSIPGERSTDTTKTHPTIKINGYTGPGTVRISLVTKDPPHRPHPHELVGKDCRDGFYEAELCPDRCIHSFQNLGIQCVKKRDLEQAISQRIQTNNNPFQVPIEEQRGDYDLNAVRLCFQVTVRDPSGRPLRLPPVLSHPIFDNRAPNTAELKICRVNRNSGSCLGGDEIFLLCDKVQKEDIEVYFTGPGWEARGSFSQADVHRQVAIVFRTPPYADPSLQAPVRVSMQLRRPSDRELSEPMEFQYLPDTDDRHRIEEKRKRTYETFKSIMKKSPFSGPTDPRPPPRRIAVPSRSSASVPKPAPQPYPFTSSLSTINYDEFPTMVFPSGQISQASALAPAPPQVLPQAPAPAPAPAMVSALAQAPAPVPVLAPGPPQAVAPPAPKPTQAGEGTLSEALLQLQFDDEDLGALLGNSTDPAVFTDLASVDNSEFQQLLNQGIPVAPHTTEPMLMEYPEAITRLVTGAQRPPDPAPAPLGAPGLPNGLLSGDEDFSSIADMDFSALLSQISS

Target: NF-κB RelA (p65) (human (endogenous in THP-1)) (UniProt Q04206)
Assay: co-IP; IP with p65 antibody (D14E12) on protein G beads, overnight at 4 °C, washed three times in PBS; blot with anti-p52; nuclear extracts of untreated Mϕ macrophages and of TAMs (treated with tumor-conditioned medium); control normal rabbit IgG; n = 3

- binding: binds
B1: NF-κB p52 (protein, UniProt Q00653 1-454)
chain: MESCYNPGLDGIIEYDDFKLNSSIVEPKEPAPETADGPYLVIVEQPKQRGFRFRYGCEGPSHGGLPGASSEKGRKTYPTVKICNYEGPAKIEVDLVTHSDPPRAHAHSLVGKQCSELGICAVSVGPKDMTAQFNNLGVLHVTKKNMMGTMIQKLQRQRLRSRPQGLTEAEQRELEQEAKELKKVMDLSIVRLRFSAFLRASDGSFSLPLKPVISQPIHDSKSPGASNLKISRMDKTAGSVRGGDEVYLLCDKVQKDDIEVRFYEDDENGWQAFGDFSPTDVHKQYAIVFRTPPYHKMKIERPVTVFLQLKRKRGGDVSDSKQFTYYPLVEDKEEVQRKRRKALPTFSQPFGGGSHMGGGSGGAAGGYGGAGGGGSLGFFPSSLAYSPYQSGAGPMGCYPGGGGGAQMAATVPSRDSGEEAAEPSAPSRTPQCEPQAPEMLQRAREYNARLFGLA
